Test results published in PubChem BioAssay AID504834 (National Center for Advancing Translational Sciences (NCATS), 2011).
Among all 320,000 compounds or so, about 22,000 (6.9%) were called active. The inconclusive results got no clear call from the source; some entries with a clear call stand among them for comparison. Calls follow the shape of the dose curve; as a rule, active = well fitted inhibition curve with a large enough effect; inconclusive = small, poorly fitted or top-dose-only effect, or another doubt; inactive = no such curve, though single readings can be large or run the other way. Where the call is inconclusive, the potency comes from a doubtful curve fit.

assay: Primary qHTS for delayed death inhibitors of the malarial parasite plastid, 96 hour incubation; settings: P. falciparum luciferase reporter growth; series mostly up to 28.7 µM; activity change, negative = inhibition: at the top concentration
In short: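 96 h incubation, 37 C, 5% CO2, of luciferase-reporter P. falciparum-infected RBCs (2% hematocrit, 0.05% parasitemia final) with test compounds; endpoint luminescence.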
% is scaled to controls: 0 for no effect and ±100 for the full control effect; potency is read from the fitted curve at half-maximal effect.

Question: For `Cc1cccc(C(=O)N2CCC(=O)N(C(COCc3ccc(Cl)cc3)Cc3ccccc3)CC2)c1` (configuration not stated), which Potency is on record?
Answer: inconclusive: 11.7 µM [inhibitor, single point]

Question: Which “activity change, negative = inhibition” value does the source give for `Nc1cccc2c3c(oc12)CCCC3` here?
Answer: inactive: 2.39%

Question: For `COc1ccc(CCn2c(=O)[nH]c3cc(C(=O)N4CCN(c5ccccn5)CC4)ccc3c2=O)cc1OC`, which Potency is on record?
Answer: inconclusive: 6.57 µM [inhibitor, partial curve, poor fit]

Question: Which Potency does the source give for `CCCN(Cc1nnc(-c2cccs2)o1)C(=O)CN1C(=O)NC2(CCCCC2C)C1=O` (configuration not stated) here?
Answer: inconclusive: 11.7 µM [inhibitor, single point]

Question: Which Potency does the source give for `COc1ccc2[nH]c(=O)c(CNc3cccc(C)c3)cc2c1` here?
Answer: inconclusive: 9.28 µM [inhibitor, partial curve]

Question: For `Cc1ccc(Nc2nc(N)nc(CN3CCN(Cc4ccc5c(c4)OCO5)CC3)n2)c(C)c1`, which Potency is on record?
Answer: inconclusive: 18.5 µM [inhibitor, single point]

Question: With `COC(=O)C1C(=O)c2c([nH]c(C(=O)OC3CCCCCC3)c2C)CC1C` (configuration not stated) as the compound, how does the Potency read?
Answer: active: 8.28 µM

Question: With `COCCc1ncc(CN2CCCC(C(=O)Nc3cccc(-c4cccc(C)c4)c3)C2)cn1` (configuration not stated) as the compound, how does the Potency read?
Answer: inconclusive: 14.7 µM [inhibitor, single point]

Question: With `S=c1[nH]cnc2sc(-c3ccccc3)cc12` as the compound, how does the “activity change, negative = inhibition” value read?
Answer: inactive: 22.4%

Question: Which “activity change, negative = inhibition” value does the source give for `O=C(COC(=O)c1ccc(Cl)cc1O)NC(=O)C1CCCCC1` here?
Answer: inactive: 36%

Question: For `O=C(c1ccc2c3c(cccc13)CC2)C1CCCN(C(=O)c2ccc[n+]([O-])c2)C1` (configuration not stated), which Potency is on record?
Answer: inconclusive: 14.7 µM [inhibitor, partial curve, poor fit]

Question: With `CCOC(=O)Cn1nnnc1CN(Cc1ccccc1)Cc1cc2cc(CC)ccc2[nH]c1=O` as the compound, how does the Potency read?
Answer: active: 11.7 µM

Question: Which Potency does the source give for `Cc1cc(C)n2nc(SCC(=O)NC3CCCCC3C)nc2n1` (configuration not stated) here?
Answer: inconclusive: 5.86 µM [inhibitor, partial curve]

Question: For `COc1ccc(C(C(=O)NC2CCCC2)N(C(=O)Cc2cccs2)C2CC2)cc1OC` (configuration not stated), which “activity change, negative = inhibition” value is on record?
Answer: inactive: 0%

Question: For `Cc1ccc(C(=O)NC(C(=O)NC2CCCC2)c2ccccc2)cc1` (configuration not stated), which “activity change, negative = inhibition” value is on record?
Answer: inactive: -2.85%

Question: With `CCCCC(c1nnnn1CC1CCCO1)N1CCN(c2nc3ccccc3s2)CC1` (configuration not stated) as the compound, how does the “activity change, negative = inhibition” value read?
Answer: inactive: 0.949%

Question: For `COc1cc(OC)c(C(=O)OCC(=O)N(Cc2ccccc2)C(C)(C)C)cc1OC`, which Potency is on record?
Answer: inconclusive: 18.5 µM [inhibitor, single point]

Question: Which “activity change, negative = inhibition” value does the source give for `CSc1nsc(SCC(=O)Nc2ccc(NC(C)=O)cc2)n1` here?
Answer: inactive: -18.3%

Question: Which Potency does the source give for `COc1ccc(-n2c(NCCN(C)C)nc3sc4c(c3c2=O)CCCCC4)cc1` here?
Answer: inconclusive: 1.47 µM [inhibitor, partial curve, poor fit]

Question: With `COc1cc(NC(=O)CN2C(=O)NC(CC(C)C)C2=O)cc(OC)c1OC` (configuration not stated) as the compound, how does the Potency read?
Answer: inconclusive: 11.7 µM [inhibitor, single point]

Question: Which Potency does the source give for `NC(=O)c1cccc(S(=O)(=O)N2CCCCC2)c1` here?
Answer: inconclusive: 11.7 µM [inhibitor, partial curve, poor fit]

Question: With `FC(F)(F)c1cccc(N2CCN(CC3CC=CCC3)CC2)c1` (configuration not stated) as the compound, how does the Potency read?
Answer: inconclusive: 18.5 µM [inhibitor, partial curve, poor fit]

Question: For `CCCCc1ccccc1NC(=S)NC1CCCC1`, which Potency is on record?
Answer: inconclusive: 11.7 µM [inhibitor, partial curve, poor fit]

Question: With `Oc1c(C=NCc2ccncc2)sc2ccccc12` as the compound, how does the “activity change, negative = inhibition” value read?
Answer: inactive: -8.55%

Question: For `Cc1ccc(N2C(=O)C(CC(=O)Nc3cccc(F)c3)N(CCc3ccncc3)C2=O)cc1` (configuration not stated), which Potency is on record?
Answer: inconclusive: 18.5 µM [inhibitor, single point]

Question: With `CC(NC(=O)c1ccc(N2CCCC2=O)cc1)c1ccccc1` (configuration not stated) as the compound, how does the Potency read?
Answer: inconclusive: 0.0657 µM [inhibitor, full curve, poor fit]

Question: Which Potency does the source give for `O=C(CNC(=O)c1ccc(OC(F)F)cc1)NCC1(N2CCOCC2)CCCCC1` here?
Answer: inconclusive: 10.4 µM [inhibitor, single point]

Question: With `CCc1nn2c(=O)cc(COC(=O)c3ccc(SC)cc3OC)nc2s1` as the compound, how does the Potency read?
Answer: inconclusive: 9.28 µM [inhibitor, partial curve]

Question: Which Potency does the source give for `CCc1nc2ccccc2c(=O)n1-c1ccc2ccccc2c1` here?
Answer: inconclusive: 10.4 µM [inhibitor, partial curve, poor fit]

Question: Which Potency does the source give for `CCCn1c(N)c(C(=O)CSc2nnc3ccccn23)c(=O)n(C)c1=O` here?
Answer: inconclusive: 0.0329 µM [inhibitor, full curve, poor fit]

Question: For `Cc1ccc(NC(=O)/C(=C/c2ccncc2)NC(=O)c2ccccc2)cc1`, which Potency is on record?
Answer: inconclusive: 20.8 µM [inhibitor, partial curve, poor fit]

Question: With `O=C(N/C(=C/c1ccccc1Cl)C(=O)N1CCCC1)c1ccccc1` as the compound, how does the Potency read?
Answer: inconclusive: 11.7 µM [inhibitor, partial curve]

Question: With `Cn1c(O)c(C(=Nc2ccccc2)SCc2ccc(Cl)cc2)c(=O)n(C)c1=O` as the compound, how does the Potency read?
Answer: inconclusive: 11.7 µM [inhibitor, single point]

Question: For `COc1ccc(C(=O)NCCCn2nc(C)cc2C)cc1S(=O)(=O)N1CCOCC1`, which “activity change, negative = inhibition” value is on record?
Answer: inactive: -4.21%

Question: Which Potency does the source give for `Cc1cnc(CNC(=O)C2CCC(=O)N(CCc3ccc(Cl)cc3)C2)cn1` (configuration not stated) here?
Answer: inconclusive: 0.0033 µM [inhibitor, full curve, poor fit]

Question: For `O=C(CSc1nc2ccc([N+](=O)[O-])cc2[nH]1)NC1CCCCCC1`, which Potency is on record?
Answer: inconclusive: 14.7 µM [inhibitor, partial curve, poor fit]

Question: For `COc1cccc(NC(=O)c2ccc(NCCCN3CC(C)CC(C)C3)c([N+](=O)[O-])c2)c1` (configuration not stated), which Potency is on record?
Answer: active: 3.7 µM

Question: With `CC1(C)C(=O)Nc2ccccc2N1C(=O)CSc1ncccn1` as the compound, how does the “activity change, negative = inhibition” value read?
Answer: inactive: 15.2%

Question: With `O=C(Nc1cccc(NC(=O)c2cccs2)c1)c1cccnc1` as the compound, how does the “activity change, negative = inhibition” value read?
Answer: inactive: -18.7%

Question: For `CC(NS(=O)(=O)c1ccc(Br)cc1)C(=O)Nc1nc2ccccc2[nH]1` (configuration not stated), which Potency is on record?
Answer: inconclusive: 13.1 µM [inhibitor, partial curve]

Question: Which “activity change, negative = inhibition” value does the source give for `O=C(C[n+]1ccccc1)N/N=C/c1ccccc1F` here?
Answer: inactive: -24.6%

Question: For `CN(C(=O)C1CCN(S(=O)(=O)c2ccccc2)CC1)c1c(N)n(Cc2ccccc2)c(=O)[nH]c1=O`, which “activity change, negative = inhibition” value is on record?
Answer: inactive: 2.87%

Question: With `Fc1ccc(CNC(=S)NC2CCCCCC2)cc1` as the compound, how does the “activity change, negative = inhibition” value read?
Answer: inactive: 0.209%

Question: Which “activity change, negative = inhibition” value does the source give for `CCN(C(=O)COC(=O)CCS(=O)(=O)c1ccc(C)cc1)C1CCS(=O)(=O)C1` (configuration not stated) here?
Answer: inactive: 12.5%

Question: For `O=C(c1ccco1)N1CCN(c2nc(-c3ccc(F)cc3)cs2)CC1`, which Potency is on record?
Answer: inconclusive: 0.415 µM [inhibitor, full curve, poor fit]

Question: With `Cc1cccc(N2CC(C)Cn3c2nc2c3c(=O)n(CC(=O)OCc3ccccc3)c(=O)n2C)c1` (configuration not stated) as the compound, how does the Potency read?
Answer: active: 11.7 µM

Question: With `CN1C(=O)[C@H]2[C@@H](/C=C/c3ccccc3)N3C(=O)CN(Cc4ccccn4)C(=O)[C@@]3(C)[C@H]2C1=O` as the compound, how does the “activity change, negative = inhibition” value read?
Answer: inactive: 35%

Question: With `COc1ccc(OC)c(-c2nnc(NC(=O)C(C)Sc3nncn3C)s2)c1` (configuration not stated) as the compound, how does the Potency read?
Answer: inconclusive: 11.7 µM [inhibitor, partial curve]

Question: For `CCC(=NCCc1ccc(OC)c(OC)c1)C1=C(O)CC(C)(C)CC1=O`, which Potency is on record?
Answer: inconclusive: 2.33 µM [inhibitor, full curve, poor fit]

Question: Which Potency does the source give for `O=C(Nc1cc(N2CCOCC2)ncn1)c1ccc(F)cc1` here?
Answer: inconclusive: 0.0029 µM [inhibitor, full curve, poor fit]

Question: Which “activity change, negative = inhibition” value does the source give for `COc1ccc(/C=C/C(=O)NNC(=O)c2ccncc2)c(OC)c1` here?
Answer: inactive: 43%

Question: Which Potency does the source give for `COc1ccc(CCNC(=O)c2cc3c(=O)n4ccccc4nc3n(C3CCCCC3)c2=N)cc1` here?
Answer: active: 4.15 µM

Question: For `Cc1cc(C(=O)N/N=C\C(Br)=C\c2ccccc2)c(C)o1`, which “activity change, negative = inhibition” value is on record?
Answer: inactive: 11.7%

Question: With `C=CCSc1nncn1/N=C/c1ccc(OC)cc1` as the compound, how does the “activity change, negative = inhibition” value read?
Answer: inactive: 171%

Question: For `Cc1ccc(S(=O)(=O)NCCCNS(=O)(=O)c2ccccc2)cc1`, which “activity change, negative = inhibition” value is on record?
Answer: inactive: 19.7%

Question: With `C=C(C)c1cccc(C(C)(C)NC(=O)NCCN(CC)CC)c1` as the compound, how does the Potency read?
Answer: active: 4.15 µM

Question: Which Potency does the source give for `CCN(CC)S(=O)(=O)c1cc(C(=O)Nc2cc(S(=O)(=O)N3CCOCC3)ccc2N2CCCC2)ccc1F` here?
Answer: active: 2.62 µM

Question: Which Potency does the source give for `CCC(C)(NC(=O)c1ccccc1)C(=O)O` (configuration not stated) here?
Answer: inconclusive: 9.28 µM [inhibitor, single point]

Question: Which Potency does the source give for `OCCNc1nc(Nc2ccc(O)cc2)nc2ccccc12` here?
Answer: active: 5.22 µM

Question: For `O=C(NCc1ccc(F)cc1F)c1cc(COc2c(F)cccc2F)on1`, which Potency is on record?
Answer: inconclusive: 11.7 µM [inhibitor, single point]

Question: For `CC(=O)c1c(C)nc(-c2ccccc2)nc1NC(=O)Cc1ccccc1`, which “activity change, negative = inhibition” value is on record?
Answer: inactive: 41.7%

Question: Which Potency does the source give for `COc1ccc(N2C(=O)CC(N3CCN(S(=O)(=O)c4c(C)cc(C)cc4C)CC3)C2=O)cc1` (configuration not stated) here?
Answer: inconclusive: 18.5 µM [inhibitor, single point]

Question: Which Potency does the source give for `COc1ccc(/C=C/C(=O)NC(C)CCc2ccccc2)cc1` (configuration not stated) here?
Answer: inconclusive: 10.4 µM [inhibitor, single point]

Question: Which “activity change, negative = inhibition” value does the source give for `CCCC(CCC)C(=O)NNc1cc(=O)c2c(=O)n(C)c(=O)n(C)c2[nH]1` here?
Answer: inactive: 71.4%

Question: For `CCCN(C(=O)c1cccc(-n2cccc2)c1)c1c(N)n(Cc2ccccc2)c(=O)[nH]c1=O`, which “activity change, negative = inhibition” value is on record?
Answer: inactive: 1.2%

Question: For `Cn1cc([N+](=O)[O-])c(C(=O)N/N=C/c2ccccc2)n1`, which “activity change, negative = inhibition” value is on record?
Answer: inactive: -9.52%

Question: For `CCc1ccc(C(O)(CNCc2ccccc2)c2ccccc2)cc1` (configuration not stated), which Potency is on record?
Answer: inconclusive: 1.47 µM [inhibitor, full curve, poor fit]

Question: For `O=C(COC(=O)c1ccc(F)cc1F)Nc1cccc(S(=O)(=O)N2CCOCC2)c1`, which “activity change, negative = inhibition” value is on record?
Answer: inactive: 36.9%

Question: For `O=C(Nc1cccc(OC(F)(F)F)c1)c1ccc(Br)o1`, which Potency is on record?
Answer: inconclusive: 0.208 µM [inhibitor, partial curve]

Question: With `CC1CCc2[nH]c3ccc(C(=O)N(C)CC(=O)Nc4ccccc4C(F)(F)F)cc3c2C1` (configuration not stated) as the compound, how does the Potency read?
Answer: inconclusive: 8.28 µM [inhibitor, partial curve, poor fit]

Question: For `Cc1ccc(/C=[N+](/C)[O-])cc1`, which “activity change, negative = inhibition” value is on record?
Answer: inactive: 38%

Question: With `CCOC(Cn1c(-c2ccc(OC)cc2)nc2ccccc21)OCC` as the compound, how does the Potency read?
Answer: inconclusive: 13.1 µM [inhibitor, single point]
